PubChem BioAssay AID1259425 | University of Nebraska Medical Center, 2018

Purpose: 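Compare each knockdown with KSR1 silencing using changes in marker transcripts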 (primary screen)
System: HCT116 human colon cancer cells
Reagents: siRNA pool against human genes, 50 nM siRNA
Read-out: 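mRNA of six signature genes measured together by branched-DNA assay after 50 nM siRNA pool, blank removed, divided by geometric mean of two housekeeping genes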
Reading the numbers: BNIP3L mRNA: higher = more BNIP3L transcript after knockdown
In all, the deposit lists about 14,000 reagents; this is an unselected part. Reagents against one gene are numbered here. Further read-outs or replicates are left out here. Not stated in the record: the time to read-out.

gene symbol	reagent	BNIP3L mRNA, set 1
PRSS2 (GeneID 5645)	1	0.0789
POLM (GeneID 27434)	1	0.0458
NFYC (GeneID 4802)	1	0.122
EMP3 (GeneID 2014)	1	0.112
HPS6 (GeneID 79803)	1	0.0969
DOC2A (GeneID 8448)	1	0.166
INVS (GeneID 27130)	1	0.103
SLITRK2 (GeneID 84631)	1	0.158
HNRNPF (GeneID 3185)	1	0.189
SEL1L3 (GeneID 23231)	1	0.139
MAGEA4 (GeneID 4103)	1	0.115
DPAGT1 (GeneID 1798)	1	0.209
MUTYH (GeneID 4595)	1	0.102
FTH1 (GeneID 2495)	1	0.0936
DUSP12 (GeneID 11266)	1	0.0674
GSTCD (GeneID 79807)	1	0.103
CCDC77 (GeneID 84318)	1	0.142
TRIM11 (GeneID 81559)	1	0.157
LIG1 (GeneID 3978)	1	0.0806
AMPD3 (GeneID 272)	1	0.1
GJC2 (GeneID 57165)	1	0.0816
NUP62CL (GeneID 54830)	1	0.103
CLIC6 (GeneID 54102)	1	0.0943
GPR143 (GeneID 4935)	1	0.222
TM9SF1 (GeneID 10548)	1	0.132

9 successive records already listed, quoted:
gene symbol	reagent	BNIP3L mRNA, set 1
GSTCD (GeneID 79807)	1	0.103
CCDC77 (GeneID 84318)	1	0.142
TRIM11 (GeneID 81559)	1	0.157
LIG1 (GeneID 3978)	1	0.0806
AMPD3 (GeneID 272)	1	0.1
GJC2 (GeneID 57165)	1	0.0816
NUP62CL (GeneID 54830)	1	0.103
CLIC6 (GeneID 54102)	1	0.0943
GPR143 (GeneID 4935)	1	0.222

More results follow:
gene symbol	reagent	BNIP3L mRNA, set 1
PPP1R16B (GeneID 26051)	1	0.0612
IPPK (GeneID 64768)	1	0.101
SEMA6C (GeneID 10500)	1	0.118
OFD1 (GeneID 8481)	1	0.204
H4C2 (GeneID 8366)	1	0.0946
FBXO21 (GeneID 23014)	1	0.102
FOXA3 (GeneID 3171)	1	0.288
CD7 (GeneID 924)	1	0.124
HOXA7 (GeneID 3204)	1	0.0759
NLRP12 (GeneID 91662)	1	0.0544
CNTN1 (GeneID 1272)	1	0.0913
SMG1 (GeneID 23049)	1	0.0872
CCDC102B (GeneID 79839)	1	0.129
SLC25A36 (GeneID 55186)	1	0.131
ANXA10 (GeneID 11199)	1	0.118
ZNF45 (GeneID 7596)	1	0.159
FBH1 (GeneID 84893)	1	0.174
KLRK1 (GeneID 22914)	1	0.11
SULT1B1 (GeneID 27284)	1	0.0881
TOR2A (GeneID 27433)	1	0.169
INSL6 (GeneID 11172)	1	0.0567
DMRT3 (GeneID 58524)	1	0.165
PRKG1 (GeneID 5592)	1	0.0815
RIPK4 (GeneID 54101)	1	0.136
OBSCN (GeneID 84033)	1	0.141
OBSCN (GeneID 84033)	2	0.218
OBSCN (GeneID 84033)	3	0.0535
